The supplement of paper PMC8256030
“And” between values parts separate entries of the source, which are not always exact repeats. Identical values can stand only once. Counter-ions that a name gives are not always drawn. Some of the results follow. Single values are uncertain here, since repeats match poorly.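 HEK293T cells were given each compound shortly before transfection with a reporter in which red mCherry is followed by the SARS-CoV-2 frameshift element and then GFP in the −1 frame, so GFP appears only after frameshifting.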

system: HEK293T; experiment: percent viability (nuclei count) relative to control; higher = more viable cells; conditions: 10 µM; 24 h

Compound | percent viability
C[C@@H]1CN([C@H]2CC[C@](C#N)(c3ccc(F)cc3)CC2)CC[C@]1(C(=O)O)c1ccccc1 [levocabastine] | 120%
CCOC(=O)Nc1ccc(NCc2ccc(F)cc2)cc1N [retigabine] | 237%
CC[C@H]1[C@@H]2C[C@H]3[C@@H]4N(C)c5ccccc5[C@]45C[C@@H]([C@@H]2[C@H]5O)N3[C@@H]1O [Ajmaline] | 263%
C[C@H](N)Cc1ccccc1 [dexamfetamine] | 35.4%
CCOC(=O)C(c1c(O)c2ccccc2oc1=O)c1c(O)c2ccccc2oc1=O [ethyl biscoumacetate] | 318%
C=CCN1CC[C@]23c4c5ccc(O)c4O[C@H]2[C@@H](O)C=C[C@H]3[C@H]1C5 [nalorphine] | 348%
CCC1(CC)C(=O)NCC(C)C1=O (stereo not given) [methyprylon] | 78.4%
C=C[C@H]1CN2CC[C@H]1C[C@@H]2[C@@H](O)c1ccnc2ccccc12 | 163%
Cc1cc(C(C#N)c2ccc(Cl)cc2)c(Cl)cc1NC(=O)c1cc(I)cc(I)c1O (stereo not given) [closantel] | 227%
N[C@@H]1C[C@H]1c1ccccc1.N[C@H]1C[C@@H]1c1ccccc1 | 118%
CO[C@]12C[C@@H](COC(=O)c3cncc(Br)c3)CN(C)[C@@H]1Cc1cn(C)c3cccc2c13 [nicergoline] | 244% and 253%
O=C1CC[C@@]2(O)[C@H]3Cc4ccc(O)c5c4[C@@]2(CCN3CC2CC2)[C@H]1O5 [Naltrexone·HCl] | 175%
CC(C)c1c(CN(C)C(C)Cc2ccccc2)n(C)n(-c2ccccc2)c1=O (stereo not given) [famprofazone] | 311%
COc1cccc(C2(O)CCCCC2CN(C)C)c1 (stereo not given) [Tramadol] | 220%
CC[C@@H](CO)NC(=O)[C@@H]1C=C2c3cccc4c3c(cn4C)C[C@H]2N(C)C1 [Methysergide maleate] | 99.3%
CN1C[C@H](C(=O)N[C@]2(C)O[C@@]3(O)[C@@H]4CCCN4C(=O)[C@H](Cc4ccccc4)N3C2=O)C[C@@H]2c3cccc4[nH]cc(c34)C[C@H]21 | 172%
CN1C(=O)NC(=O)C(C)(C2=CCCCC2)C1=O (stereo not given) [hexobarbital] | 286%
CN1C(=O)CC(=O)N(c2ccccc2)c2cc(Cl)ccc21 [clobazam] | 170%
Cc1cccc([C@H](C)c2c[nH]cn2)c1C [dexmedetomidine] | 193%
O=[N+]([O-])c1ccc([As](=O)(O)O)cc1 [nitarsone] | 176%

Compound | percent viability
CN1C[C@@H](NS(=O)(=O)N(C)C)C[C@@H]2c3cccc4c3c(cn4C)C[C@H]21 [mesulergine] | 318%
Cc1ccc2c(c1)C1CN(C)CCC1N2 (stereo not given) [dicarbine] | 261%
Nc1nc(N)nc(NC2CC2)n1 [cyromazine] | 154%
Cc1ncsc1CCCl [clomethiazole] | 264%
CCCCC(C#N)(Cn1cncn1)c1ccc(Cl)cc1 (stereo not given) [Myclobutanil] | 179%
O=C(O)C(=O)c1cn(Cc2ccccc2)c2ccc(-c3ccc(OC(F)(F)F)cc3)cc12 [tiplasinin] | 120%
CCOC(=O)c1cncn1[C@H](C)c1ccccc1 [etomidate] | 206%
C=CCN1CC[C@]23CCCC[C@H]2[C@H]1Cc1ccc(O)cc13 [levallorphan] | 134%
C#C[C@]1(O)CC[C@H]2[C@@H]3CCC4=C[C@@H](O)CC[C@@H]4[C@H]3CC[C@@]21C [etynodiol] | 301%
C[C@@H]1O[C@@H](O[C@@H]2C=C3CC[C@@H]4[C@H](CC[C@]5(C)[C@@H](c6ccc(=O)oc6)CC[C@]45O)[C@@]3(C)CC2)[C@H](O)[C@H](O)[C@H]1O [proscillaridin] | 5.16%
c1ccc2c(c1)sc1ccccc12 | 120%
CCC[C@@H]1CC2=CC(=O)CC[C@]2(C)[C@H]2CC[C@@]3(C)[C@@H](CC[C@@]3(O)CCC(=O)O)[C@H]12 [oxprenoate] | 138%
N.N.[Cl][Pt][Cl] | 155%
O=C(O)c1nn(Cc2ccc(Cl)cc2Cl)c2ccccc12 [lonidamine] | 30.8%
C[C@]12CCC(=NOCCN)C[C@@H]1C(=O)C[C@@H]1[C@@H]2CC[C@]2(C)C(=O)CC[C@@H]12 [istaroxime] | 4.37%
CCc1cc2c(s1)N(C)C(=O)CN=C2c1ccccc1Cl [clotiazepam] | 217%
CN1CCc2cc3c(cc2C1O)OCO3 (stereo not given) | 308%
CCN(CC)C(=O)N[C@H]1C=C2c3cccc4[nH]cc(c34)C[C@H]2N(C)C1 [lisuride] | 280%
C[C@@H]1CC[C@H]2[C@@H](C)C(=O)O[C@@H]3O[C@@]4(C)CC[C@@H]1[C@]32OO4 [Artemisinin] | 193%
CC1C=CC=CCCC=CC=CC=CC=CC(OC2OC(C)C(O)C(N)C2O)CC2OC(O)(CC(O)C(O)CCC(O)CC(O)CC(O)CC(=O)OC(C)C(C)C1O)CC(O)C2C(=O)O (stereo not given) [Nystatin] | 59.8%
